# Measurements published in PubChem BioAssay (EPA / NIEHS).
# Protein sequences, listed by entry. Tags and fused reporters are not part of them. Lines headed by an entry give the natural chain unless they say otherwise; changes in a name come on top.
# UniProt P13631, whole entry, looked up: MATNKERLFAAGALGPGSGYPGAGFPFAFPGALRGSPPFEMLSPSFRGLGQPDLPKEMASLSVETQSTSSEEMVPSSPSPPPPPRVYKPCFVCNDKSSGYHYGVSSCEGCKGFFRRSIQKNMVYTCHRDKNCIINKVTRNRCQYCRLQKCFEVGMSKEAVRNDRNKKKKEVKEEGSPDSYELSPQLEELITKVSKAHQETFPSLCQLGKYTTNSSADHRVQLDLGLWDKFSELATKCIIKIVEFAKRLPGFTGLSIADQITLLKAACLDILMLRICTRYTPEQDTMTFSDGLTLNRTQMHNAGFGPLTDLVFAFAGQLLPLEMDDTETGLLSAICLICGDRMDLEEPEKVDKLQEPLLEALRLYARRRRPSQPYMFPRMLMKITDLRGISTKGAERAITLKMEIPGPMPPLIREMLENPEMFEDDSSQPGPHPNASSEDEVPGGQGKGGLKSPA
# UniProt Q92753: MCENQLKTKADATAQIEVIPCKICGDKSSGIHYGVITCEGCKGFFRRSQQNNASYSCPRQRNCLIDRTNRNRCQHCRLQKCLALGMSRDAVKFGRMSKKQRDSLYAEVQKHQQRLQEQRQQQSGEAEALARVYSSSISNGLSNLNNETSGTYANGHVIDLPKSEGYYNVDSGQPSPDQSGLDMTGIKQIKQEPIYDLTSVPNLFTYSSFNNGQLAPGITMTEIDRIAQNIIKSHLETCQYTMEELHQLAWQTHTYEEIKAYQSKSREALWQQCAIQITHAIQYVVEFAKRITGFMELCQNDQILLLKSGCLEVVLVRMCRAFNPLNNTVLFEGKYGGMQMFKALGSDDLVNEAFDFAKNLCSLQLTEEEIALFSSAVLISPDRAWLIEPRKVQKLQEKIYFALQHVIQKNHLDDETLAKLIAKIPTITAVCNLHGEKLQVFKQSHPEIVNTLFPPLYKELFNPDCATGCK
# UniProt P51449: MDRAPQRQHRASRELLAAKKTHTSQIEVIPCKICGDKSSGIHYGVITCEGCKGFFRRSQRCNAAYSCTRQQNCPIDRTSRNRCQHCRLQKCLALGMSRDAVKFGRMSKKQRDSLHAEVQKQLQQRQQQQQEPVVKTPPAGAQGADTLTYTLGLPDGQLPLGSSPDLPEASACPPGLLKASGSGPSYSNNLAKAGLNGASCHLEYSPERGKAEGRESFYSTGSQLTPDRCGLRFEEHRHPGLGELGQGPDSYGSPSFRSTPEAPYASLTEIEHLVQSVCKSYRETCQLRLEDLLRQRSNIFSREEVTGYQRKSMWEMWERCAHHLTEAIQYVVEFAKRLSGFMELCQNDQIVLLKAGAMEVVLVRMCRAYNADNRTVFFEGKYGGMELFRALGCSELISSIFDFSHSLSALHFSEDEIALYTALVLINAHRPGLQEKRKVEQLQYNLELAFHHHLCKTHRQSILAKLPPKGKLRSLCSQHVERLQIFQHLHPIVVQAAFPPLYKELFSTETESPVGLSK
# UniProt P19793: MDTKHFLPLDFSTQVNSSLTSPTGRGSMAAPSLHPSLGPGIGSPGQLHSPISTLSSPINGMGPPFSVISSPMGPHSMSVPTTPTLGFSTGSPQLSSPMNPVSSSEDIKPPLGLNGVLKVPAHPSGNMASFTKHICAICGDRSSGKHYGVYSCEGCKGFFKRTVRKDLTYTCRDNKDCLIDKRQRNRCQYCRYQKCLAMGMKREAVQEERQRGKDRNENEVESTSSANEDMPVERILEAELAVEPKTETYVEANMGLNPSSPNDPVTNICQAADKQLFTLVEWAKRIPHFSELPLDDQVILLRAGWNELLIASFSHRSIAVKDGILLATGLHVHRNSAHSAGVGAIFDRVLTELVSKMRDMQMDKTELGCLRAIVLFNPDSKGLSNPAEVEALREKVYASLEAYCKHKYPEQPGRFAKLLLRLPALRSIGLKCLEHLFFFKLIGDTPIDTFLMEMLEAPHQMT
# UniProt O75469: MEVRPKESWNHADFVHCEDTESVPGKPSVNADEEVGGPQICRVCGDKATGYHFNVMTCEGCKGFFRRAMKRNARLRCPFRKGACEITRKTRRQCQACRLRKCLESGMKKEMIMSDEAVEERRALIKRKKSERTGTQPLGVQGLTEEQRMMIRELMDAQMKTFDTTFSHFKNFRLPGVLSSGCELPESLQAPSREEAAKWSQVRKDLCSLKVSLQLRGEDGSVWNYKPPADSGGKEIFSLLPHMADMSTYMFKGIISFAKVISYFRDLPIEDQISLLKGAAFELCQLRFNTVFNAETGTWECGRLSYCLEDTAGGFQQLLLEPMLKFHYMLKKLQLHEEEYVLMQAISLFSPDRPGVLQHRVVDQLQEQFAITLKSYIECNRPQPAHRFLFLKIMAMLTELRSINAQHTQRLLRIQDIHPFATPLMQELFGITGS
# UniProt P28702: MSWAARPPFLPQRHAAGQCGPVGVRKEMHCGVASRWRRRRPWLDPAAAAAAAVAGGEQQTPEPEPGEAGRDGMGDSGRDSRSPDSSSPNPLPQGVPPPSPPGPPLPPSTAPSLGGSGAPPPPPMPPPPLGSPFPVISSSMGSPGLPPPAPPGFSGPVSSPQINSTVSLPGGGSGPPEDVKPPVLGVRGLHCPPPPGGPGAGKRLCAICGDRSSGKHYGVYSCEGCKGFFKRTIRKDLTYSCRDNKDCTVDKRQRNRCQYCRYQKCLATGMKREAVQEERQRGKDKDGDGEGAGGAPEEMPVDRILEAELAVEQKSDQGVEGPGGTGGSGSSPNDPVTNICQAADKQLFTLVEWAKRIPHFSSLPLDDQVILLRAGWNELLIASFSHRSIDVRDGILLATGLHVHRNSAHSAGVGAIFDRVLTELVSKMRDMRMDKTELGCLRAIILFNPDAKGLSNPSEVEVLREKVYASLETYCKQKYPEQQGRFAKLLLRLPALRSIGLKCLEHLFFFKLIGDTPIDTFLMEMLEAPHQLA
# UniProt P10827: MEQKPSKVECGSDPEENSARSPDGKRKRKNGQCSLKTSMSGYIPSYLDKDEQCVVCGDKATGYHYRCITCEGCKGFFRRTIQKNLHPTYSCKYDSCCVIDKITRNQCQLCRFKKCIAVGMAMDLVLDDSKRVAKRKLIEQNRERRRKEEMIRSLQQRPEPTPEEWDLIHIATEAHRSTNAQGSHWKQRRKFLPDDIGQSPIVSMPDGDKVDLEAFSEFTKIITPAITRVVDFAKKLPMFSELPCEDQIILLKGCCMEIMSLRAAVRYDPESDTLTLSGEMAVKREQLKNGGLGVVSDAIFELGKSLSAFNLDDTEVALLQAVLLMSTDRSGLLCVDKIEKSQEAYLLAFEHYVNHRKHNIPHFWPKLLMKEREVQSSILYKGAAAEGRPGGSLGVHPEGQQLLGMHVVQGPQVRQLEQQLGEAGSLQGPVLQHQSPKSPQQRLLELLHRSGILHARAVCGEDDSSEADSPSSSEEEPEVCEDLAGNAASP
# UniProt P11473: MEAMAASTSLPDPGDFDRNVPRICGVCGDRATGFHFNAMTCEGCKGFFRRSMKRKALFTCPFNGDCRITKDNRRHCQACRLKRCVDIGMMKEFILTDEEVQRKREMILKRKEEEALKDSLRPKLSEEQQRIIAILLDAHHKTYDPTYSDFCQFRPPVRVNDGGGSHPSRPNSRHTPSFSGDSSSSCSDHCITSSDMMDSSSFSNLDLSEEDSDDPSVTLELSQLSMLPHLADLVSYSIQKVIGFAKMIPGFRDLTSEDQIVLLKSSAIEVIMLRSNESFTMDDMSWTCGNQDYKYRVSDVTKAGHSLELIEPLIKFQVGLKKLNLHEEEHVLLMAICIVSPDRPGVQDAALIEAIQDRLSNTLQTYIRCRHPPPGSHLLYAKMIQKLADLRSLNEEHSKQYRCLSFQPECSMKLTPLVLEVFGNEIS
# “And” between values parts separate entries of the source, which are not always exact repeats. Identical values can stand only once. Inconclusive results, whose numbers are uncertain, are shown with a selection of clear calls. Potencies beside an inconclusive call are fits to weak or partial responses and may not hold up. The source made the active and inactive calls. Rule for the calls: active = hit-call score of the fitted dose curve at least 0.9, where 1 is the maximum; inconclusive = response in the unintended direction; inactive = score below 0.9.
# Tests used:
# [1] = molecular target: human Retinoic Acid Receptor gamma (RARg), RARG (gene 5916) (UniProt P13631); experiment: ATG_RARg_TRANS: Attagene TRANS-FACTORIAL HepG2 Assay for human Retinoic Acid Receptor gamma (RARg) (AID 2283009);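 for AC50: AC50 is for reporter induction above DMSO meaning RARg activation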
# Method in brief: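 Readout: reporter transcript levels via RT-PCR, 6-FAM primer-extension labelling, HpaI digestion and capillary electrophoresis. Cells: HepG2 carrying transfected RARg-GAL4 chimera plus UAS reporter set. Dosing 24 h; DMSO negative control.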
# [2] = molecular target: human RAR-related Orphan Receptor beta (RORb), RORB (gene 6096) (UniProt Q92753); experiment: ATG_RORb_TRANS: Attagene TRANS-FACTORIAL HepG2 Assay for human RAR-related Orphan Receptor beta (RORb) (AID 2283010);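 for AC50: potency for increased reporter mRNA meaning activation of RORb-Gal4 chimera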
# Method in brief: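 HepG2, transient MRTU transfection (GAL4-UAS reporters, exogenous NR-Gal4 chimeras); 24 h compound exposure; total RNA → RT-PCR → 6-FAM primer extension → HpaI digest → CE fluorescence. Positive direction vs DMSO baseline.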
# [3] = molecular target: human RAR-related Orphan Receptor gamma (RORg), RORC (gene 6097) (UniProt P51449); experiment: ATG_RORg_TRANS: Attagene TRANS-FACTORIAL HepG2 Assay for human RAR-related Orphan Receptor gamma (RORg) (AID 2283011);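 for AC50: potency for induction of reporter transcripts above DMSO so activators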
# Method in brief: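 Chimeric RORg-Gal4 transactivation in transfected HepG2; 24 h exposure; RT-PCR/capillary electrophoresis readout of reporter mRNA, DMSO baseline.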
# [4] = molecular target: Retinoic acid receptor RXR-alpha (Homo sapiens) (UniProt P19793); experiment: ATG_RXRa_TRANS: Attagene TRANS-FACTORIAL HepG2 Assay for human Retinoid X Receptor alpha (RXRa) (AID 2283012)
# Method in brief: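 Read-out: fluorescent reporter-transcript fragments quantified by capillary electrophoresis after RT-PCR. Transiently transfected HepG2 cells carrying GAL4-UAS reporters and NR-GAL4 chimeras were exposed to chemical for 24 h; activity scored as increase over DMSO.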
# [5] = molecular target: Nuclear receptor subfamily 1 group I member 2 (Homo sapiens) (UniProt O75469); experiment: ATG_PXR_TRANS: Attagene TRANS-FACTORIAL HepG2 Assay for human Pregnane X Receptor (PXR) (AID 2283008)
# Method in brief: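 Multiplexed TRANS reporter panel in HepG2; this component tracks PXR-Gal4-driven reporter mRNA after 24 h dosing, measured by RT-PCR with capillary electrophoresis fluorescence, fitted against DMSO.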
# [6] = molecular target: human Retinoid X Receptor beta (RXRb), RXRB (gene 6257) (UniProt P28702); experiment: ATG_RXRb_TRANS: Attagene TRANS-FACTORIAL HepG2 Assay for human Retinoid X Receptor beta (RXRb) (AID 2283013)
# Method in brief: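 Read-out: reporter mRNA induction via RT-PCR plus capillary electrophoresis fluorescence, analysed as signal increase relative to DMSO. Cells were human HepG2, transiently transfected with GAL4-UAS reporter constructs and chimeric receptor-Gal4 fusions, dosed for 24 h.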
# [7] = molecular target: human Thyroid Receptor alpha (THRa1), THRA (gene 7067) (UniProt P10827); experiment: ATG_THRa1_TRANS: Attagene TRANS-FACTORIAL HepG2 Assay for human Thyroid Receptor alpha (THRa1) (AID 2283014)
# Method in brief: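 Measured here is mRNA from a GAL4-UAS reporter in transfected HepG2 cells carrying a Gal4-fused receptor, 24 h post-dose. DMSO served as negative control and baseline.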
# [8] = molecular target: human Vitamin D Receptor (VDR), VDR (gene 7421) (UniProt P11473); experiment: ATG_VDR_TRANS: Attagene TRANS-FACTORIAL HepG2 Assay for human Vitamin D Receptor (VDR) (AID 2283022)
# Method in brief: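 Multiplexed TRANS reporter in HepG2; 24 h treatment; reporter mRNA by RT-PCR plus capillary electrophoresis; upregulation scored relative to DMSO.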
smiles,measurement,setting,value
FC(F)=C(F)OC(F)(F)C(F)(F)C(F)(F)F,AC50,[1],inconclusive: 150 µM
same,AC50,[2],inconclusive: 150 µM
same,AC50,[3],inconclusive: 150 µM
same,AC50,[4],inconclusive: 150 µM
CCCCCCCCCCCC[N+](C)(C)Cc1ccccc1,AC50,[1],inconclusive: 1.85 µM and active: 155 µM
same,AC50,[2],inconclusive: 100 µM
same,outcome,[2],inactive
same,AC50,[3],inconclusive: 1.85 µM and inconclusive: 10.5 µM
same,AC50,[6],inconclusive: 1.85 µM and inconclusive: 100 µM
same,outcome,[7],inactive
same,AC50,[8],inconclusive: 1.85 µM and inconclusive: 178 µM
CCCCCCCC/C=C\CCCCCCCC(=O)OCC(O)CO (stereo not drawn),AC50,[1],inconclusive: 100 µM
same,AC50,[2],inconclusive: 2.51 µM
same,AC50,[3],inconclusive: 184 µM
same,AC50,[4],inconclusive: 27.8 µM
same,AC50,[6],inconclusive: 4.41 µM
Cc1cc(C)nc(NS(=O)(=O)c2ccc(N)cc2)n1,AC50,[1],inconclusive: 100 µM
COCCCOc1ccnc(CS(=O)c2nc3ccccc3[nH]2)c1C (stereo not drawn),AC50,[5],active: 4.77 µM
same,AC50,[3],inconclusive: 0.417 µM
same,outcome,[6],inactive
C=CCOC(=O)CCCCCC,AC50,[1],inconclusive: 100 µM
same,outcome,[2],inactive
COC(F)(C(F)F)C(F)(F)F (stereo not drawn),AC50,[1],inconclusive: 150 µM
same,outcome,[2],inactive
same,outcome,[3],inactive
same,outcome,[4],inactive
same,AC50,[6],inconclusive: 150 µM
CCOC(=O)[C@@H](C)Oc1ccc(Oc2nc3ccc(Cl)cc3o2)cc1,AC50,[1],inconclusive: 25.8 µM
same,AC50,[2],inconclusive: 190 µM
CC1CCC(CO)CC1 (stereo not drawn),AC50,[1],inconclusive: 100 µM and inconclusive: 99.5 µM
same,AC50,[2],inconclusive: 180 µM
same,outcome,[2],inactive
same,AC50,[3],inconclusive: 3.76 µM
same,outcome,[3],inactive
same,AC50,[4],inconclusive: 100 µM
same,outcome,[4],inactive
same,AC50,[6],inconclusive: 82.7 nM and inconclusive: 99.5 µM
same,AC50,[7],inconclusive: 16.2 µM and inconclusive: 99.5 µM
same,outcome,[8],inactive
CS(=O)(=O)c1ccc([C@@H](CC2CCCC2)C(=O)Nc2cnccn2)cc1Cl,AC50,[1],inconclusive: 40.6 µM
same,AC50,[2],inconclusive: 100 µM
same,AC50,[3],inconclusive: 100 µM
Nc1ccc(O)c(C(=O)O)c1,outcome,[1],inactive
same,outcome,[2],inactive
same,AC50,[3],inconclusive: 100 µM
same,AC50,[4],inconclusive: 1.62 µM
Nc1ccc(N)c2c1C(=O)c1ccccc1C2=O,outcome,[1],inactive
same,outcome,[2],inactive
same,AC50,[3],inconclusive: 100 µM
Cc1ccc2oc(CN(Cc3ccccc3)C(=O)Nc3c(F)cc(F)cc3F)c(-c3ccc(Cl)cc3)c2c1,AC50,[1],inconclusive: 0.154 µM
same,AC50,[2],inconclusive: 7 µM
same,AC50,[3],inconclusive: 5.15 µM
CCOC(=O)C1CC(=O)C(=C(O)C2CC2)C(=O)C1 (stereo not drawn),AC50,[1],inconclusive: 100 µM
same,outcome,[2],inactive
same,AC50,[3],inconclusive: 100 µM
same,AC50,[4],inconclusive: 100 µM
same,AC50,[6],inconclusive: 181 µM
same,AC50,[7],inconclusive: 100 µM
same,AC50,[8],inconclusive: 4.84 µM
CCOC(=O)C1OC1c1ccccc1 (stereo not drawn),AC50,[1],inconclusive: 62.3 µM
same,AC50,[2],inconclusive: 100 µM
same,outcome,[3],inactive
same,AC50,[4],inconclusive: 24.2 µM
same,AC50,[6],inconclusive: 10 µM
same,AC50,[7],inconclusive: 70.5 µM
same,outcome,[8],inactive
